# Experimental data from the supplement of paper PMC8728848.
# This is one part of the list.
# B1: PX14379D-pdi-530-26-530 (Parabacteroides distasonis) (protein)
# chain: DETVYDKLPADDFGQSTAELNALIGNSHNTMKKFWTEYMHLSECSGSMAVTPTRRGGDWYDGGQYREIYMHTWTSQTSRVKSAWKAATEAIGTCNEAIRKLQNSEILTEEEKAQDVADLRGVRAFWIYVMMDYWGNIPLLTEFHPTDKVFPGNSSRQEVFDWLIQEVEEIKDICPPATTENYGSFTQGAAYSLLAKLYLNAEAWGVTFSGNAYQKVIDNCDKVMAMGYILEPNWKDNFSVTNENSKEAILAATFSSSDTGNDGNVKNELHNNTLHYKDYLSLGITASGTWNGICAQPEYVRLFDEEDARLDGTFLTGLMIDKSTGKPIMTDHNNELNHTIDVNMIPGMEYDGTNWSAVEQHDGARCFKWEFASDLTSSMGNDFHIFRLADIYLMKAEALLRGGGSVSEATALVNTIRERGYGNSDHNYATVTLKEVQLERRLELAWEVYSRQDDIRFGCFTTGMWPQSNCERKADDYLKLLPVSQDAWQVNPNLKQNPGYAAFSK
# Experiments:
# Experiment in all cases: glycan array binding signal (z-score within array); higher = stronger binding
# Details in all cases: glycan notation: IUPAC condensed, linker removed
# [1] = target: Fuc(a1-2)[GalNAc(a1-3)]Gal(b1-3)GlcNAc(b1-6)GalNAc
# Outline: (§1)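 Glycan array data were curated from 3228 arrays in the Consortium for Functional Glycomics database and kept only where the protein sequence was available. Glycan names were converted to IUPAC-condensed notation, and columns mapping to the same glycan were averaged. The binding signal is a within-array Z-score, averaged across arrays of the same protein sequence at different concentrations or buffers and across linkers. Negative Z-scores can be read as non-binding.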
# [2] = target: Fuc(a1-2)[GalNAc(a1-3)]Gal(b1-4)Glc
# Outline: as §1
# [3] = target: Fuc(a1-2)[GalNAc(a1-3)]Gal(b1-4)GlcNAc
# Outline: as §1
# [4] = target: Fuc(a1-2)[GalNAc(a1-3)]Gal(b1-4)GlcNAc(b1-2)Man
# Outline: as §1
# [5] = target: Fuc(a1-2)[GalNAc(a1-3)]Gal(b1-4)GlcNAc(b1-2)Man(a1-3)[Fuc(a1-2)[GalNAc(a1-3)]Gal(b1-4)GlcNAc(b1-2)Man(a1-6)]Man(b1-4)GlcNAc(b1-4)GlcNAc
# Outline: as §1
# [6] = target: Fuc(a1-2)[GalNAc(a1-3)]Gal(b1-4)GlcNAc(b1-2)Man(a1-3)[Fuc(a1-2)[GalNAc(a1-3)]Gal(b1-4)GlcNAc(b1-2)Man(a1-6)]Man(b1-4)GlcNAc(b1-4)[Fuc(a1-6)]GlcNAc
# Outline: as §1
# [7] = target: Fuc(a1-2)[GalNAc(a1-3)]Gal(b1-4)GlcNAc(b1-3)Gal(b1-4)GlcNAc
# Outline: as §1
# [8] = target: Fuc(a1-2)[GalNAc(a1-3)]Gal(b1-4)GlcNAc(b1-3)Gal(b1-4)GlcNAc(b1-3)Gal(b1-4)GlcNAc
# Outline: as §1
# [9] = target: Fuc(a1-2)[GalNAc(a1-3)]Gal(b1-4)GlcNAc(b1-3)GalNAc
# Outline: as §1
# [10] = target: Fuc(a1-2)[GalNAc(a1-3)]Gal(b1-4)GlcNAc(b1-3)[Fuc(a1-2)[GalNAc(a1-3)]Gal(b1-4)GlcNAc(b1-6)]GalNAc
# Outline: as §1
# [11] = target: Fuc(a1-2)[GalNAc(a1-3)]Gal(b1-4)GlcNAc(b1-6)GalNAc
# Outline: as §1
# [12] = target: Fuc(a1-2)[GalNAc(a1-3)]Gal(b1-4)[Fuc(a1-3)]GlcNAc
# Outline: as §1
# [13] = target: Fuc(a1-2)[GalNAc(a1-3)]Gal(b1-4)[Fuc(a1-3)]GlcNAc(b1-3)GalNAc
# Outline: as §1
# [14] = target: Fuc(a1-2)[GalNAc(a1-4)]Gal(b1-4)GlcNAc
# Outline: as §1
# [15] = target: Fuc(a1-2)[GalNAc(b1-3)]Gal
# Outline: as §1
# Fuc(a1-3)GlcNAc = target: Fuc(a1-3)GlcNAc
# Outline: as §1
# [16] = target: Fuc(a1-3)[Gal(b1-4)]Glc6S
# Outline: as §1
# [17] = target: Fuc(a1-3)[Gal(b1-4)]GlcNAc
# Outline: as §1
# [18] = target: Fuc(a1-3)[Gal(b1-4)]GlcNAc(b1-2)Man
# Outline: as §1
# [19] = target: Fuc(a1-3)[Gal(b1-4)]GlcNAc(b1-2)Man(a1-3)[Fuc(a1-3)[Gal(b1-4)]GlcNAc(b1-2)Man(a1-6)]Man(b1-4)GlcNAc(b1-4)GlcNAc
# Outline: as §1
# [20] = target: Fuc(a1-3)[Gal(b1-4)]GlcNAc(b1-2)Man(a1-3)[Fuc(a1-3)[Gal(b1-4)]GlcNAc(b1-2)Man(a1-6)]Man(b1-4)GlcNAc(b1-4)[Fuc(a1-6)]GlcNAc
# Outline: as §1
# [21] = target: Fuc(a1-3)[Gal(b1-4)]GlcNAc(b1-3)Gal(b1-3)[Fuc(a1-4)]GlcNAc
# Outline: as §1
# [22] = target: Fuc(a1-3)[Gal(b1-4)]GlcNAc(b1-3)Gal(b1-4)[Fuc(a1-3)]GlcNAc
# Outline: as §1
# [23] = target: Fuc(a1-3)[Gal(b1-4)]GlcNAc(b1-3)Gal(b1-4)[Fuc(a1-3)]GlcNAc(b1-3)Gal(b1-4)[Fuc(a1-3)]GlcNAc
# Outline: as §1
# [24] = target: Fuc(a1-3)[Gal(b1-4)]GlcNAc(b1-3)GalNAc
# Outline: as §1
# [25] = target: Fuc(a1-3)[Gal(b1-4)]GlcNAc(b1-6)GalNAc
# Outline: as §1
# [26] = target: Fuc(a1-3)[Gal(b1-4)]GlcNAc(b1-6)[Gal(b1-3)GlcNAc(b1-3)]Gal(b1-4)Glc
# Outline: as §1
# [27] = target: Fuc(a1-3)[Gal(b1-4)]GlcNAc6S
# Outline: as §1
# [28] = target: Fuc(a1-3)[Gal3S(b1-4)]Glc
# Outline: as §1
# [29] = target: Fuc(a1-3)[Gal3S(b1-4)]GlcNAc
# Outline: as §1
# [30] = target: Fuc(a1-3)[Gal3S(b1-4)]GlcNAc6S
# Outline: as §1
# [31] = target: Fuc(a1-3)[GalNAc(b1-4)]GlcNAc
# Outline: as §1
# [32] = target: Fuc(a1-3)[GalNAc(b1-4)]GlcNAc6S
# Outline: as §1
# Fuc(a1-4)GlcNAc = target: Fuc(a1-4)GlcNAc
# Outline: as §1
# Fuc(b1-3)GlcNAc = target: Fuc(b1-3)GlcNAc
# Outline: as §1
# Gal(a1-2)Gal = target: Gal(a1-2)Gal
# Outline: as §1
# Gal(a1-3)Gal = target: Gal(a1-3)Gal
# Outline: as §1
binder,measurement,setting,value
B1,glycan array binding signal (z-score),[1],0.43
same,glycan array binding signal (z-score),[2],-0.433
same,glycan array binding signal (z-score),[3],-0.757
same,glycan array binding signal (z-score),[4],-0.631
same,glycan array binding signal (z-score),[5],0.083
same,glycan array binding signal (z-score),[6],-0.211
same,glycan array binding signal (z-score),[7],-0.668
same,glycan array binding signal (z-score),[8],-0.472
same,glycan array binding signal (z-score),[9],1.29
same,glycan array binding signal (z-score),[10],-0.832
same,glycan array binding signal (z-score),[11],0.293
same,glycan array binding signal (z-score),[12],-0.843
same,glycan array binding signal (z-score),[13],0.236
same,glycan array binding signal (z-score),[14],-0.676
same,glycan array binding signal (z-score),[15],-0.623
same,glycan array binding signal (z-score),Fuc(a1-3)GlcNAc,-0.715
same,glycan array binding signal (z-score),[16],1.74
same,glycan array binding signal (z-score),[17],-0.689
same,glycan array binding signal (z-score),[18],-0.326
same,glycan array binding signal (z-score),[19],0.394
same,glycan array binding signal (z-score),[20],1.42
same,glycan array binding signal (z-score),[21],-0.965
same,glycan array binding signal (z-score),[22],0.562
same,glycan array binding signal (z-score),[23],-0.534
same,glycan array binding signal (z-score),[24],-0.125
same,glycan array binding signal (z-score),[25],0.622
same,glycan array binding signal (z-score),[26],-0.281
same,glycan array binding signal (z-score),[27],1.23
same,glycan array binding signal (z-score),[28],-0.37
same,glycan array binding signal (z-score),[29],-0.25
same,glycan array binding signal (z-score),[30],-0.261
same,glycan array binding signal (z-score),[31],-0.221
same,glycan array binding signal (z-score),[32],-0.013
same,glycan array binding signal (z-score),Fuc(a1-4)GlcNAc,-0.952
same,glycan array binding signal (z-score),Fuc(b1-3)GlcNAc,-0.499
same,glycan array binding signal (z-score),Gal(a1-2)Gal,-0.331
same,glycan array binding signal (z-score),Gal(a1-3)Gal,-0.878

# Part of the list above, bar-delimited.
binder | measurement | setting | value
B1 | glycan array binding signal (z-score) | [11] | 0.293
same | glycan array binding signal (z-score) | [12] | -0.843
